Results on two molecules are retold here after article PMC8644300.

Sequences of proteins named here, by UniProt entry; tags and fusion partners are left off. A change or cut given only in a name is not applied to a line headed by its entry.
UniProt Q9M0Z3: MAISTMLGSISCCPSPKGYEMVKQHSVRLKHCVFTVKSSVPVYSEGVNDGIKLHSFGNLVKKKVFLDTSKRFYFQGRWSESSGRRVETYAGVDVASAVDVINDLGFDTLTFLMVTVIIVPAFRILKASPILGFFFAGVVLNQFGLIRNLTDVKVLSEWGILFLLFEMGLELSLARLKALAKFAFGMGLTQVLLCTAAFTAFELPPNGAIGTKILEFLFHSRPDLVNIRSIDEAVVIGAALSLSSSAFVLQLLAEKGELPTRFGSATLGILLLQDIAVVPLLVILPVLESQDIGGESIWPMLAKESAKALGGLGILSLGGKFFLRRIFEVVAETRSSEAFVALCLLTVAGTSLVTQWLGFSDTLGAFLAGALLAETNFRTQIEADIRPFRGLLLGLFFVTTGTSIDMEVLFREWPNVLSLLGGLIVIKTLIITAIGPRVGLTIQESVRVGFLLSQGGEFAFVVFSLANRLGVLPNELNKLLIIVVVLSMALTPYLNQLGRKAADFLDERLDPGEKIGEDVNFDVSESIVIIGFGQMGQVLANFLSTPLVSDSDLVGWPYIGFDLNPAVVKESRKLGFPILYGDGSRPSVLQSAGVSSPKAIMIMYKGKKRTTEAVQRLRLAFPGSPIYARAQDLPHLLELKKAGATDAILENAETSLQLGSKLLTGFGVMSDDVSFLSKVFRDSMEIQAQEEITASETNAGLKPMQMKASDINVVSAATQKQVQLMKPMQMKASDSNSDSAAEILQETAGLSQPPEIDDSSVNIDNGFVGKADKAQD

Results are given in words; binding and its absence hold for the method and conditions named. For some assays here: In cells and extracts the contact can be indirect.

In assay [1] the target is K+ exchange antiporter 3 (KEA3), native KEA3.2 isoform (Arabidopsis thaliana (endogenous in Col-0)). Description: native gel or EMSA; Blue Native PAGE of solubilized thylakoids; gel slices with the KEA3 high molecular weight complexes excised and analysed by LC-MS/MS for proteins with the same distribution as KEA3.
In assay [2] the target is KEA3.2-GFP (Arabidopsis thaliana) (UniProt Q9M0Z3). In words: co-IP; GFP trap on solubilized thylakoids of 2xKEA3.2 and 2xKEA3.3, Col-0 as control, pellets probed by immunoblot.

B1: thylakoid membrane insertase Alb3 (protein, UniProt Q8LBP4 57-462)
chain: SLNEIPPFHGLDSSVDIGAIFTRAESLLYTIADAAVVGADSVVTTDSSAVQKSGGWFGFISDAMELVLKILKDGLSAVHVPYAYGFAIILLTIIVKAATYPLTKQQVESTLAMQNLQPKIKAIQQRYAGNQERIQLETSRLYKQAGVNPLAGCLPTLATIPVWIGLYQALSNVANEGLFTEGFFWIPSLGGPTSIAARQSGSGISWLFPFVDGHPPLGWYDTVAYLVLPVLLIASQYVSMEIMKPPQTDDPAQKNTLLVFKFLPLMIGYFALSVPSGLSIYWLTNNVLSTAQQVYLRKLGGAKPNMDENASKIISAGRAKRSIAQPDDAGERFRQLKEQEKRSKKNKAVAKDTVELVEESQSESEEGSDDEEEEAREGALASSTTSKPLPEVGQRRSKRSKRKRTV
For the molecule B1, in assay [1], the binding entry is recorded as “no binding”.

B2: PsbS (protein, UniProt Q9XF91 60-265)
chain: AAPKKVEKPKSKVEDGIFGTSGGIGFTKANELFVGRVAMIGFAASLLGEALTGKGILAQLNLETGIPIYEAEPLLLFFILFTLLGAIGALGDRGKFVDDPPTGLEKAVIPPGKNVRSALGLKEQGPLFGFTKANELFVGRLAQLGIAFSLIGEIITGKGALAQLNIETGIPIQDIEPLVLLNVAFFFFAAINPGNGKFITDDGEES
As for B2, the binding entry in assay [2] is reported as “no binding”.
